Results deposited as PubChem BioAssay AID602196 (INSERM, 2012).
Purpose: 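Genes whose knock-down alters cisplatin killing of lung cancer cells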. Cell system: human A549 lung cancer cells. Reagent: siRNA pair against human genes. Time to read-out: 48 h transfection before cisplatin; time from cisplatin to read-out not stated. Conditions: cisplatin at a dose killing half of control-siRNA cells; exact dose and duration not given. Measured: 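Cisplatin cell death as a shift from the 50% death seen with control siRNA; siRNAs toxic or growth-blocking alone scored 0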. Scale: two-siRNA summed score (-2 to +2): higher = both siRNAs protect from cisplatin killing; -2 means both sensitise; mean protection from cisplatin (shift in death) and protection from cisplatin (shift in death), siRNA C and protection from cisplatin (shift in death), siRNA D: higher = protection from cisplatin killing. Active means: 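Each siRNA scores 0 if harmful alone by LDH or WST-1, otherwise +1 if it reduces and -1 if it increases cisplatin killing; a gene is active when both siRNAs agree (sum +2 or -2)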. Calls: active = both siRNAs shift cisplatin killing the same way; inactive = no consistent shift, or siRNA harmful alone.
Here is a random part of about 23,000 deposited reagents. 455 of all reagents (2%) were called active. 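Active includes both protection and sensitisation; some change values fall well beyond the stated -50 to +50 range.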 A number with no mark means an inactive call. The record does not give: the amount of reagent.

no.	Gene	two-siRNA summed score (-2 to +2)	mean protection from cisplatin (shift in death) (%)	protection from cisplatin (shift in death), siRNA C (%)	protection from cisplatin (shift in death), siRNA D (%)
1	LOC348938	0	3.5	-0.7	7.7
2	IFITM3P8	0	7.3	1.7	13
3	KCTD5	0	3.7	2	5.4
4	MCHR1	-1	-8.4	1.5	-18.3
5	SSC4D	0	15.1	4.3	25.9
6	IGF1R	-1	-12.3	-4.5	-20.1
7	LOC441786	1	11.2	14.2	8.3
8	PSMC5	1	35.1	35.9	34.2
9	LOC127150	1	14.9	11.7	18.2
10	CACNA1S	-1	-1.3	11.4	-14
11	LCMT1	1	12.9	7.7	18.2
12	SHFL	0	6.3	8.8	3.8
13	OR5M10	0	7.2	10.7	3.6
14	FLJ21159	0	0	5.9	-5.8
15	TMEM69	0	10.4	12.8	7.9
16	MFSD11	0	3	-7	13
17	LYVE1	-1	-3.6	12.7	-19.9
18	KITLG	-1	-16.3	-23.6	-9.1
19	TMED10	0	5.3	11.1	-0.6
20	LOC440492	0	5	4.7	5.4
21	AKR1C1	0	-8.3	-0.4	-16.2
22	KRTAP1-5	0	3	7.1	-1.2
23	LEMD2	0	4.4	11.3	-2.6
24	ADGRF2P	0	-9.6	-17.7	-1.6
25	OR6K3	1	16.5	11.8	21.1
26	PPIAP58	2 (active)	21.2	17.5	24.8
27	LOC440856	1	16.7	20.4	13
28	TMEM205	1	18	20.7	15.3
29	SLC19A3	-1	-8.8	-0.4	-17.1
30	LOC441751	1	12.2	-2.2	26.5
31	SCAF8	1	9.7	2.8	16.6
32	SLC35C1	0	9.2	6.4	12
33	TBC1D5	1	12.4	11.6	13.2
34	LOC391040	0	26.7	36.3	17.2
35	LOC400954	0	7.5	10.8	4.1
36	POLR1E	0	-0.5	5.2	-6.2
37	LOC400320	0	7.8	9.7	5.8
38	ANKEF1	0	2.3	8.5	-3.9
39	KLRC1	0	5.4	9.5	1.2
40	FAM47B	0	2.7	14.4	-8.9
41	OR8K3	0	7.9	6.7	9.1
42	FEN1	-1	-0.3	-13.2	12.6
43	LOC390613	0	5.9	13.6	-1.9
44	EGLN3	1	10.5	5.8	15.2
45	FOSL1	-1	-5.9	-13.8	1.9
46	IL4	0	-8.3	-7.2	-9.4
47	FLAD1	0	4.1	8.6	-0.5
48	PKD2	0	12.4	-5.3	30.2
49	SRSF8	0	1.6	-8.5	11.7
50	NOP53	0	5.6	14.9	-3.8
51	LOC388169	0	12.2	13.3	11.1
52	LOC440975	0	2.7	5.6	-0.1
53	FLJ45684 (retired record)	0	13	-4.3	30.2
54	ASB13	0	0.5	-8.1	9.1
55	LOC440999	-1	-2.1	-10.7	6.5
56	TSSK1B	1	11.3	15.1	7.6
57	MS4A6E	-1	-3.5	17.1	-24.2

Targets above whose gene name begins with F or f:
Gene	two-siRNA summed score (-2 to +2)	mean protection from cisplatin (shift in death) (%)	protection from cisplatin (shift in death), siRNA C (%)	protection from cisplatin (shift in death), siRNA D (%)
FLJ21159	0	0	5.9	-5.8
FAM47B	0	2.7	14.4	-8.9
FEN1	-1	-0.3	-13.2	12.6
FOSL1	-1	-5.9	-13.8	1.9
FLAD1	0	4.1	8.6	-0.5
FLJ45684 (retired record)	0	13	-4.3	30.2
